Laboratory results: PubChem BioAssay AID2685 (National Center for Advancing Translational Sciences (NCATS), 2010)
Out of some 320,000 compounds screened, about 2,100 (0.66%) were called active. Inconclusive means that the source gave no clear call. Such entries were picked first, then a sample of the others. Calls come from the whole dose curve; as a rule, active = well fitted inhibition curve with a large enough effect in the signal ratio, with a control signal flat (not every such curve was filed as active); inconclusive = small, poorly fitted or top-dose-only effect, or effect the other way, or a change in a side signal; inactive = flat fitted curve, though single readings scatter; the % refers to the signal ratio. Where the call is inconclusive, the potency comes from a doubtful curve fit.

Assay: qHTS Assay for Lipid Storage Modulators in Drosophila S3 Cells
Conditions: BODIPY lipid droplet fluorescence, 18-24 h, cells fed with added oleic acid; lipid storage change, negative = inhibition: at 46.1 µM (top of the series) unless noted
Outline: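 Drosophila S3 cells loaded with oleic acid (400 uM, as added) and compounds at several concentrations; lipid droplets imaged by 488-nm laser-scanning cytometry, 500–530 nm intensity and object ratio to cell channel. Percent activity normalized to 20 uM Triacsin C.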
% is set by controls: 0 for no effect and ±100 for the full control effect; potency is the fitted concentration of half-maximal effect.

Lipid storage change, negative = inhibition, inconclusive:
O=C(NCC1CCN(Cc2ccc(Cl)cc2)CC1)C1CCCN(c2ncnc3c2nc2n3CCCCC2)C1 (stereo not drawn) 164%
COc1cccc(Cn2c(OCC3CCCO3)nc3c2c(=O)n(C)c(=O)n3C)c1 (stereo not drawn) 16.9%
CC(=O)Nc1ccc(N=Cc2c(O)ccc3ccccc23)cc1 24.4%
CC(=O)c1cc2c(cc1NS(=O)(=O)c1ccc(C)cc1)OCCO2 -13.7%
Fc1ccc(NC(=S)NCc2ccccc2Cl)cc1 44.6%
COc1ccc(-c2c(C)c3cc(O)ccc3oc2=O)cc1 -44.7%
O=c1[nH]c(/C=C/c2ccccc2OC(F)F)nc2c1cnn2-c1ccccc1 47.1%
O=c1oc2ccc([N+](=O)[O-])cc2c(N2CCOCC2)c1[N+](=O)[O-] 22.5%
CCCOc1ccccc1C1NC(=O)NC(C)=C1C(=O)OCCOC (stereo not drawn) -0.0294%
O=C(c1cc(-c2ccccc2)nc2ccccc12)N1CCOCC1 8.32%
Cc1ccc(C(CC(=O)N2CCOCC2)c2ccco2)cc1 (stereo not drawn) -13.8%
c1ccc(-n2cc(CN3CCCC3)c(-c3ccc4c(c3)OCO4)n2)cc1 39.5%
CC1(C)SC(=S)N(/N=C/c2ccc(O)cc2)C1N(O)C(=O)Nc1ccc([N+](=O)[O-])cc1 (stereo not drawn) 5.08%
Cc1nnc(SCC(=O)Nc2sc3c(c2C(N)=O)CCC(C)C3)[nH]c1=O (stereo not drawn) -1.23%
COc1ccc(OC)c(/C=N/NC(=O)c2cc[n+](CC(=O)c3ccccc3)cc2)c1 -10.7%
O=C(Nc1ccccc1Br)c1c(F)cccc1Cl 12.1%
O=C(COC(=O)c1ccc(O)cc1)Nc1cccc(S(=O)(=O)N2CCCCC2)c1 -27.6%
Cc1ccc2cccc(Oc3cnccn3)c2n1 27.7%
CC(Oc1ccc(Br)cc1)C(=O)Nc1ccc(S(=O)(=O)N(C)C2CCN(C)CC2)cc1 (stereo not drawn)
COc1ccc(C(=O)c2cc([N+](=O)[O-])ccc2N2CCCC2)cc1 34.4%
COc1cc(Cl)ccc1OCc1cc(C(=O)N2C[C@]3(C)C[C@H]2CC(C)(C)C3)no1 -31% [at 0.00295 µM]
CCOC(=O)C1=NNC2C(=O)N(C3CCCCC3)C(=O)C12 (stereo not drawn) 16.5%
CC1(C)NS(=O)(=O)Oc2ccccc21 47.6%
CCc1ccc(-c2nc(SCC(=O)c3c(N)n(C4CC4)c(=O)[nH]c3=O)n[nH]2)cc1 -9.49%
Cc1ccc(C(=O)OCC(=O)Nc2cccc(S(=O)(=O)N3CCOCC3)c2)o1 12.2%
CCOc1ccc(NC(=O)CCN2C(=O)C3CCCCC3C2=O)cc1OCC (stereo not drawn) 18.5%
Cc1cccc(C)c1NC(=O)NC1(C(=O)N2CCCC2)CCCCC1 -156%
CC(=O)CSc1ccc(C(=O)O)cn1 0.826%
COc1ccc(NS(=O)(=O)c2cccc3cccnc23)cc1OC -22.9%
CC1(C)CC(=O)C2=C(C1)NC1=C(C(=O)c3ccccc31)C2c1cccnc1 (stereo not drawn) 28.6%
NC(=O)c1ccccc1NC(=O)CCn1c(=S)oc2ccccc21 -19.1%
Cc1ccc(C(=O)N2CCN(Cc3ccccc3)CC2)cc1S(=O)(=O)N1CCOCC1
COc1cccc(S(=O)(=O)NCC(=O)Nc2ccc(C(C)(C)C)cc2)c1 1.44%

2 compounds drawn at random from those above:
Lipid storage change, negative = inhibition, inconclusive:
O=C(COC(=O)c1ccc(O)cc1)Nc1cccc(S(=O)(=O)N2CCCCC2)c1 -27.6%
Fc1ccc(NC(=S)NCc2ccccc2Cl)cc1 44.6%

Next part.

Potency, inconclusive:
O=C(NCc1ccccn1)C1CCC(=O)N1C1CCCCC1 (stereo not drawn) 25.9 µM [falling, single point]
Cc1cccc(N(CC(=O)Nc2ccccc2-c2ccccc2)S(=O)(=O)c2ccccc2)c1C 32.6 µM [falling, single point]
Cc1cc(S(=O)(=O)Nc2ccc(C(=O)NCc3cccnc3)cc2)ccc1F 4.11 µM [falling, full curve, poor fit]
COC(=O)Cc1c(C)c2ccc(OCC(=O)N3CCCC3)c(C)c2oc1=O 25.9 µM [falling, single point]
Cc1ccc(SCC(=O)NCc2ccncc2)cc1 0.184 µM [rising, full curve, poor fit]
Cc1cc2c(s1)c1cnn(Cc3ccccc3F)c(=O)c1n2C 0.82 µM [activator, full curve, poor fit]
Oc1ccccc1CNCCCNCc1ccccc1O 1.16 µM [falling, single point]
O=C(CCCCCNC(=O)N1CCn2c1nc1ccccc12)NCCc1ccccc1 4.61 µM [activator, single point]
Cc1cccc(S(=O)Cc2ccc(C(=O)N3CCN(C(=O)c4ccco4)CC3)o2)c1 (stereo not drawn) 29.1 µM [activator, partial curve, poor fit]
N#CC1=C(S)N(c2ccccc2)C(c2ccc(-c3cc(Cl)ccc3Cl)o2)NC1=O (stereo not drawn) 0.0291 µM [activator, full curve, poor fit]
CN(Cc1ccccc1)C(=O)c1[nH]cnc1C(=O)NCC(=O)OC(C)(C)C 8.2 µM [falling, partial curve, poor fit]
O=C(CN1C(=O)S/C(=C\c2ccc(-c3cc(C(=O)O)ccc3Cl)o2)C1=O)Nc1ccc2c(c1)OCO2 20.6 µM [falling, single point]
COc1ncc(C2=CC(=O)CC(C)(C)C2)cn1 1.16 µM [activator, single point]
CCOC(=O)C1CCc2nc3ccccc3c(=O)n21 (stereo not drawn) 6.51 µM [activator, full curve, poor fit]

Potency, active:
CN(C)CCn1c2ccccc2c2nc3ccc([N+](=O)[O-])cc3cc21 7.31 µM
